According to publication doi:10.1101/2021.06.20.448993:
No constants are given. Whether binding was seen depends on the method and setting. Binding seen in cells or lysates may run through a third protein.

Sequences of proteins named here, by UniProt entry; tags and fusion partners are left off. Residues count along the entry.
UniProt Q9QUK6, residues 26-835: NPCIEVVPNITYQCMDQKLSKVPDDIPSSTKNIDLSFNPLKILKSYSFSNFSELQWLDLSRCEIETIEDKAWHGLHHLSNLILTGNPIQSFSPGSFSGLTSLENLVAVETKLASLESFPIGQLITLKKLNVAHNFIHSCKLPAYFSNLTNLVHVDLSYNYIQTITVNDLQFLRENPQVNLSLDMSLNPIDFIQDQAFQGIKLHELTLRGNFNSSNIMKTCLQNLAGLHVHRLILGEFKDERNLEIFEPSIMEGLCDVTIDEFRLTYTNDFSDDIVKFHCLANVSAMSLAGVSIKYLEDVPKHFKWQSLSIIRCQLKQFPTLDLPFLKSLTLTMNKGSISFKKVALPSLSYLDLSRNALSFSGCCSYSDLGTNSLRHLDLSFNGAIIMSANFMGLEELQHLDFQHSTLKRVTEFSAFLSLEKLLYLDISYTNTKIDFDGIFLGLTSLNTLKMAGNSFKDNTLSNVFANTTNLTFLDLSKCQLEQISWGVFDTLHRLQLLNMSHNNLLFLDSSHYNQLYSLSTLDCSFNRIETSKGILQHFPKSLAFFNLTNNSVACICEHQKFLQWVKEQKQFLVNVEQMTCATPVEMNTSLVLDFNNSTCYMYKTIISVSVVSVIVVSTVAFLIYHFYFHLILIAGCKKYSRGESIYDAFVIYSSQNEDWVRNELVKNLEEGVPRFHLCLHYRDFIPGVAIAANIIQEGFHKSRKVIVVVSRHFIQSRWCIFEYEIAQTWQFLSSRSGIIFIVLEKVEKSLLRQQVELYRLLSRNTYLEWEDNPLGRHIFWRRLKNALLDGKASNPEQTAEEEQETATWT
UniProt Q6Q1S2, residues 19-1356: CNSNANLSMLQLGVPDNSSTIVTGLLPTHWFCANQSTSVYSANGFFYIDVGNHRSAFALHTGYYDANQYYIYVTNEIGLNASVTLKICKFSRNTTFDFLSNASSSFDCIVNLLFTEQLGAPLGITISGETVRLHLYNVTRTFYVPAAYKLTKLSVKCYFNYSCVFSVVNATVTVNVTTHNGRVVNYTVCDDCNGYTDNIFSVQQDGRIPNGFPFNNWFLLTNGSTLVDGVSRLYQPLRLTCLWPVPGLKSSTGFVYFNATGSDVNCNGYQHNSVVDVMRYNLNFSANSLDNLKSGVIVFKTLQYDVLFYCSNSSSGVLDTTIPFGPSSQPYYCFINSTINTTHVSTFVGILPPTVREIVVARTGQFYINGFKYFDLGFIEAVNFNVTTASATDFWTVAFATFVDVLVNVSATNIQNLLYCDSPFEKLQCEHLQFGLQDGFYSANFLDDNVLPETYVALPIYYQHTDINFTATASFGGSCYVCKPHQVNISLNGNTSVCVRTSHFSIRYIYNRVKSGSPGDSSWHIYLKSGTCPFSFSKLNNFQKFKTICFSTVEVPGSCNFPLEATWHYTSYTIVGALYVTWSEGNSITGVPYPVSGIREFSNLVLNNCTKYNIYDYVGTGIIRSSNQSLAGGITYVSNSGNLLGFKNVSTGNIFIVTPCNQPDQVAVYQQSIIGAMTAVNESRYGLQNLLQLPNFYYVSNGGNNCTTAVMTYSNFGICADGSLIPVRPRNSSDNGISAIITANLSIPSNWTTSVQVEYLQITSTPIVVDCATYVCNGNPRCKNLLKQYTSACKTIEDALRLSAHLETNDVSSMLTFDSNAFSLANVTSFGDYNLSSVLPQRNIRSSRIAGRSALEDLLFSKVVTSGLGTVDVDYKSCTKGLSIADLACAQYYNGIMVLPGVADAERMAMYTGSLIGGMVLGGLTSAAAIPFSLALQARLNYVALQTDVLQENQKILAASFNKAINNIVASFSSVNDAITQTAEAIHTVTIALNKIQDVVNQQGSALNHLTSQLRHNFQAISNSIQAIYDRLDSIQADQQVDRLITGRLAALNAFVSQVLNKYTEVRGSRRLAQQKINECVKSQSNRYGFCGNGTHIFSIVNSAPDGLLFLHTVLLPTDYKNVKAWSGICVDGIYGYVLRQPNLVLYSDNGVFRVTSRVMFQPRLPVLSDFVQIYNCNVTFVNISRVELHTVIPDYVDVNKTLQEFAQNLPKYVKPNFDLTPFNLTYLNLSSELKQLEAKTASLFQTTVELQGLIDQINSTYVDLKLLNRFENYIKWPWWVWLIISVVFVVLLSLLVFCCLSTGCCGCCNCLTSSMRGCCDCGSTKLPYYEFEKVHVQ

Biological target: FLAG tagged murine TLR4 (Toll-like receptor 4) (murine) (UniProt Q9QUK6)
Assay: co-IP

With “8xHis tagged HCoV-NL63 Spike (from UniProt Q6Q1S2 19-1356)” the binding was “no binding”.
